Results are given in words; binding and its absence hold for the method and conditions named. A result given as binding can be weak or reduced; the word gives no strength. For part of these data: Tags and fused reporters may be left off the sequences shown. For part of these data: Binding seen in cells or lysates may run through a third protein.
Experiments:
His-tagged Ythdf2 = target: T1, His-tagged Ythdf2 (UniProt E9PU11); assay: SPR; Biacore 8K, 25 °C, His-tagged protein captured on NTA chip (100-150 RU), analyte proteins without His tag 3-100 nM injected 100 s, dissociation 150 s, HBS-P+ running buffer; both purified
T1 sequence: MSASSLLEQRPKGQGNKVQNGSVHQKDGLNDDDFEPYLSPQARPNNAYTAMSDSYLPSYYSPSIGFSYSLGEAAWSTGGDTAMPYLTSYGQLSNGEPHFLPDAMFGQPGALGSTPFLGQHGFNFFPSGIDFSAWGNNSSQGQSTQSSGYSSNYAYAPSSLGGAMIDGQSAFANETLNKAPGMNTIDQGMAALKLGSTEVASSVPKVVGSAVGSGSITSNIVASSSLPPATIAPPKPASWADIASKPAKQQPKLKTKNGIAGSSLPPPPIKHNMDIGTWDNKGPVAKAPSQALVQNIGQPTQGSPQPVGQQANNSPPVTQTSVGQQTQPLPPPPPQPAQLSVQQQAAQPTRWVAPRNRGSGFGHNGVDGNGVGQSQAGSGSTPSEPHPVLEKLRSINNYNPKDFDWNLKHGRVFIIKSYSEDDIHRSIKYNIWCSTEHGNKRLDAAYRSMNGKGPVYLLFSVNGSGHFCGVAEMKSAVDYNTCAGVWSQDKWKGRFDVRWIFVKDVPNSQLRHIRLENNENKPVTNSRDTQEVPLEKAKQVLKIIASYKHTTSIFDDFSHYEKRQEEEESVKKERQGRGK

[1] = target: Nsun4 (rat (endogenous in BMSCs)); assay: co-IP; endogenous proteins immunoprecipitated from rat BMSC lysates (with or without chondrogenic induction) with Nsun4 or Mettl3 antibody and corresponding IgG, Pierce Direct Magnetic IP/Co-IP kit, western blot
His-tagged Mettl3 = assay: SPR; Biacore 8K, 25 °C, His-tagged protein captured on NTA chip (100-150 RU), analyte proteins without His tag 3-100 nM injected 100 s, dissociation 150 s, HBS-P+ running buffer; both purified

Q: With Nsun4 (His tag cleaved) as the molecule, how does the binding (His-tagged Ythdf2) read?
A: binds

B1: Ythdf2 (protein, UniProt E9PU11 1-579)
chain: MSASSLLEQRPKGQGNKVQNGSVHQKDGLNDDDFEPYLSPQARPNNAYTAMSDSYLPSYYSPSIGFSYSLGEAAWSTGGDTAMPYLTSYGQLSNGEPHFLPDAMFGQPGALGSTPFLGQHGFNFFPSGIDFSAWGNNSSQGQSTQSSGYSSNYAYAPSSLGGAMIDGQSAFANETLNKAPGMNTIDQGMAALKLGSTEVASSVPKVVGSAVGSGSITSNIVASSSLPPATIAPPKPASWADIASKPAKQQPKLKTKNGIAGSSLPPPPIKHNMDIGTWDNKGPVAKAPSQALVQNIGQPTQGSPQPVGQQANNSPPVTQTSVGQQTQPLPPPPPQPAQLSVQQQAAQPTRWVAPRNRGSGFGHNGVDGNGVGQSQAGSGSTPSEPHPVLEKLRSINNYNPKDFDWNLKHGRVFIIKSYSEDDIHRSIKYNIWCSTEHGNKRLDAAYRSMNGKGPVYLLFSVNGSGHFCGVAEMKSAVDYNTCAGVWSQDKWKGRFDVRWIFVKDVPNSQLRHIRLENNENKPVTNSRDTQEVPLEKAKQVLKIIASYKHTTSIFDDFSHYEKRQEEEESVKKERQGRGK
Q: With B1 as the molecule, how does the binding [1] read?
A: binds

B2: Ythdf2 (His tag cleaved) (protein, UniProt E9PU11 1-579)
chain: MSASSLLEQRPKGQGNKVQNGSVHQKDGLNDDDFEPYLSPQARPNNAYTAMSDSYLPSYYSPSIGFSYSLGEAAWSTGGDTAMPYLTSYGQLSNGEPHFLPDAMFGQPGALGSTPFLGQHGFNFFPSGIDFSAWGNNSSQGQSTQSSGYSSNYAYAPSSLGGAMIDGQSAFANETLNKAPGMNTIDQGMAALKLGSTEVASSVPKVVGSAVGSGSITSNIVASSSLPPATIAPPKPASWADIASKPAKQQPKLKTKNGIAGSSLPPPPIKHNMDIGTWDNKGPVAKAPSQALVQNIGQPTQGSPQPVGQQANNSPPVTQTSVGQQTQPLPPPPPQPAQLSVQQQAAQPTRWVAPRNRGSGFGHNGVDGNGVGQSQAGSGSTPSEPHPVLEKLRSINNYNPKDFDWNLKHGRVFIIKSYSEDDIHRSIKYNIWCSTEHGNKRLDAAYRSMNGKGPVYLLFSVNGSGHFCGVAEMKSAVDYNTCAGVWSQDKWKGRFDVRWIFVKDVPNSQLRHIRLENNENKPVTNSRDTQEVPLEKAKQVLKIIASYKHTTSIFDDFSHYEKRQEEEESVKKERQGRGK
Q: For B2, which binding (His-tagged Mettl3) is on record?
A: binds
